# Assay results: PMC13385394, “Cryo-EM Structure of the TRPC1/5 Heteromer Enables Design of Antidepressant and Anxiolytic Drug with Reduced Side Effects” (Nature Communications, 2026)
# By UniProt entry, the sequences of proteins in these tests, tags left out.
# UniProt Q9UL62: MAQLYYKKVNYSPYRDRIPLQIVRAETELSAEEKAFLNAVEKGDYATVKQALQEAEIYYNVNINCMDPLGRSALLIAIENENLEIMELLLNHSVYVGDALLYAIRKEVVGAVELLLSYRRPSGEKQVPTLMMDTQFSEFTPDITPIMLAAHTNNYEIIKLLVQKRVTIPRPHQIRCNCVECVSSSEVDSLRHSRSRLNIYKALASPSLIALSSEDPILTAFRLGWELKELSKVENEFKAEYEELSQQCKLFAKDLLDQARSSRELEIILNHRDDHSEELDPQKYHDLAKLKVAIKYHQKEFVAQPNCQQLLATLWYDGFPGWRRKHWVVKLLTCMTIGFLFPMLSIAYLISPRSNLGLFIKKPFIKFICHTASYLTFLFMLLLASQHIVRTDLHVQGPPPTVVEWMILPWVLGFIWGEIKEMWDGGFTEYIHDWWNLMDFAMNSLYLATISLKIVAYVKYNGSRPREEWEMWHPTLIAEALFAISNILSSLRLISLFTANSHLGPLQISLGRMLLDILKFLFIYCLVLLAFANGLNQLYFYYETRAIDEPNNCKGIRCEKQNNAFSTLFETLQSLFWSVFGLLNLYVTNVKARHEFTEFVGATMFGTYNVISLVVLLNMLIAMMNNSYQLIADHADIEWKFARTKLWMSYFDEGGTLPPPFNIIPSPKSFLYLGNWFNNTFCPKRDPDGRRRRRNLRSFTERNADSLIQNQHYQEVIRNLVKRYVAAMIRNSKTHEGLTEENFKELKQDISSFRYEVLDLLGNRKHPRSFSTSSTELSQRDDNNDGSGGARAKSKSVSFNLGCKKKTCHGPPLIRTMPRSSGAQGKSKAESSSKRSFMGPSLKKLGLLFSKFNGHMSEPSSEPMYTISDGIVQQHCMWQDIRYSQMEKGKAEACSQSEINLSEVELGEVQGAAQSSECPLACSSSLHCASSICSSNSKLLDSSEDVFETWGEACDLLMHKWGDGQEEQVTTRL
# These are yes or no findings as the source states them, for the method shown. In cells and extracts the contact can be indirect. Some results given as binding are weak or reduced against the parent protein; the word gives no strength.
# Target: TRPC5 labeled with eGFP or mCherry (not stated (human or mouse cDNA cloned)) (UniProt Q9UL62)
# Assay: FRET or BRET; acceptor photobleaching FRET (eGFP donor, mCherry acceptor) by confocal microscopy in live HEK293T cells, 37°C, 5% CO2; the two tagged subunits co-transfected in the same proportion
substance,measurement,value
TRPC5 labeled with eGFP or mCherry (from UniProt Q9UL62 1-973),binding,binds
